Article PMC3978658
These are yes or no findings as the source states them, for the method shown. In cells and extracts the contact can be indirect. Here binding means that the protein was enriched with, or labelled near, the bait; the list need not be complete.

Amino acid sequences for entries named in this document (tags omitted). A change or cut given only in a name is not applied to a line headed by its entry.
UniProt Q585C6: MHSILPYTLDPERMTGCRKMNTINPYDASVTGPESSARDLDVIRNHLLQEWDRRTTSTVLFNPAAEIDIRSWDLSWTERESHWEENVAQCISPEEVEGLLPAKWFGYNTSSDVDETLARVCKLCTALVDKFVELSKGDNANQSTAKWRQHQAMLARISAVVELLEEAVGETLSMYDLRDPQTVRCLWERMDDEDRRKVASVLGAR
UniProt Q387E7: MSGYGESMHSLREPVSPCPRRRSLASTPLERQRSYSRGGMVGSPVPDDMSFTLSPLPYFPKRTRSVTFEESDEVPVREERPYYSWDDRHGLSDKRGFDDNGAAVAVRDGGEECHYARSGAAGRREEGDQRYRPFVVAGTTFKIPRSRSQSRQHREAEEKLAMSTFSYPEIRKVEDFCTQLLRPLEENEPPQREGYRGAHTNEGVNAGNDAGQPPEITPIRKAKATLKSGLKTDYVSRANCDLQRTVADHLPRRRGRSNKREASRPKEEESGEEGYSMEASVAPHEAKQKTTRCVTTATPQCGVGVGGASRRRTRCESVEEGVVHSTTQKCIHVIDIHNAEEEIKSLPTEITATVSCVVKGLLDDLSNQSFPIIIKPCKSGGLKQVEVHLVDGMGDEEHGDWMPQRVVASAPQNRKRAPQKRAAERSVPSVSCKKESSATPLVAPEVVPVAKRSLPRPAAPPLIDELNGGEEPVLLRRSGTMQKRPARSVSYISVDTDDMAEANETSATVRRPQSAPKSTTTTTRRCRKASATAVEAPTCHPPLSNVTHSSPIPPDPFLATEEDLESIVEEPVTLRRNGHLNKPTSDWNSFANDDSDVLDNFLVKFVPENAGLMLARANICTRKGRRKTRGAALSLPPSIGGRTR
UniProt Q584J5: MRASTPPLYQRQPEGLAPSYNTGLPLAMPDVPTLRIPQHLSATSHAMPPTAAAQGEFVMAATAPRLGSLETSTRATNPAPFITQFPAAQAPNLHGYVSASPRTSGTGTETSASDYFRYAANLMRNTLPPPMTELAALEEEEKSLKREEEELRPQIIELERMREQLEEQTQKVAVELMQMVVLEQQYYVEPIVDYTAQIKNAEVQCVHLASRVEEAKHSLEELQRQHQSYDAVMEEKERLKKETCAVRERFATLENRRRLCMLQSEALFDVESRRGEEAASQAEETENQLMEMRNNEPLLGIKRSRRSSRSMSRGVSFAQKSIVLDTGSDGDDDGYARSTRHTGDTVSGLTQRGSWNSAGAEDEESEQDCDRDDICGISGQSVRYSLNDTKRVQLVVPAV
UniProt Q57VN9: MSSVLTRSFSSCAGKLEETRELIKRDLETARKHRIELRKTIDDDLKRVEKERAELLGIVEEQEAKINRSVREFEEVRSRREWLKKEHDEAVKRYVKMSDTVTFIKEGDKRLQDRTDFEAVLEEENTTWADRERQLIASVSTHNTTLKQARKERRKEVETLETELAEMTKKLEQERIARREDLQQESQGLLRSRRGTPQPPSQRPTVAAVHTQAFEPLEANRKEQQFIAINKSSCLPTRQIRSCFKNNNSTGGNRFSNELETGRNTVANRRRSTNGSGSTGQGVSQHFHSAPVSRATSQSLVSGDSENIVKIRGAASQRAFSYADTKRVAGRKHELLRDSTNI
UniProt Q382U0: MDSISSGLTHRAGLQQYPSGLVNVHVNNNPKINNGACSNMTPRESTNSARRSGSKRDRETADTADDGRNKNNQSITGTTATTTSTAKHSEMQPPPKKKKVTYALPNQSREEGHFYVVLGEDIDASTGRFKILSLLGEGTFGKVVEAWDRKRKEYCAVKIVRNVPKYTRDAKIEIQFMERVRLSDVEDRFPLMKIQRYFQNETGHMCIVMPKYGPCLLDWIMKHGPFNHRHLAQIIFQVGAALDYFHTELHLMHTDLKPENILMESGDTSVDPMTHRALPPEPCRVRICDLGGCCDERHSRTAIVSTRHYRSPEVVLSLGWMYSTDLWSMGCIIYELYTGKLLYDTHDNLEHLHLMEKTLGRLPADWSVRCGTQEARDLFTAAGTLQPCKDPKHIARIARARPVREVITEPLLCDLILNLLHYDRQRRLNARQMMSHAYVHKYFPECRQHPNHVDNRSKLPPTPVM
UniProt Q57V00: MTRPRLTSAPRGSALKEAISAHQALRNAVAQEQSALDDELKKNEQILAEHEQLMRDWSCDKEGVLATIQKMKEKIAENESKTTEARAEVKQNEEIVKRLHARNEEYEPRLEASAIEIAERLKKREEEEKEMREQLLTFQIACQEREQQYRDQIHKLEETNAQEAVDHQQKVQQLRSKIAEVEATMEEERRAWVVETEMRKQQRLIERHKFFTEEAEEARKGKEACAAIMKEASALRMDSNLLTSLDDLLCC
UniProt Q38AN9: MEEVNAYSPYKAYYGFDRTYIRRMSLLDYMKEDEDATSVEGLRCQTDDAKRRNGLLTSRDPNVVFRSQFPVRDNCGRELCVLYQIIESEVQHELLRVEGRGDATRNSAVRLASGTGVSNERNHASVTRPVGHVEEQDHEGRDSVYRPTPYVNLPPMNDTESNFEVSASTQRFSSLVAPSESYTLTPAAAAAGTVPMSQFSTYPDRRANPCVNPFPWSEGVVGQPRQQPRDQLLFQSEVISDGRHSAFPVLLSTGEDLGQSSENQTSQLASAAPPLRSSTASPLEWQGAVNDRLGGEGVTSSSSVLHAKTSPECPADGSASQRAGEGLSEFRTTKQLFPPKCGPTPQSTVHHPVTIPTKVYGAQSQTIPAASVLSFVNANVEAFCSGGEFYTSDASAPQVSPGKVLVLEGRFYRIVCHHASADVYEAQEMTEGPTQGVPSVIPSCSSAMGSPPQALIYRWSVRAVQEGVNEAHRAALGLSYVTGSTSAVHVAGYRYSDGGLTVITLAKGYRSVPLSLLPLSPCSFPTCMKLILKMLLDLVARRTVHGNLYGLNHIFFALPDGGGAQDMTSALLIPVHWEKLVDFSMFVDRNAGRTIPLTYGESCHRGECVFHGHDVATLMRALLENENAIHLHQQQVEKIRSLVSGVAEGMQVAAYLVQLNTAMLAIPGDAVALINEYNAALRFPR
UniProt Q387F0: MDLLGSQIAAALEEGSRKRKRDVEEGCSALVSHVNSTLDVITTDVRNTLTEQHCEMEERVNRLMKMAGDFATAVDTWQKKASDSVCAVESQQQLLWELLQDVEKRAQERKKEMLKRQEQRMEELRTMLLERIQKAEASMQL
UniProt Q582U6: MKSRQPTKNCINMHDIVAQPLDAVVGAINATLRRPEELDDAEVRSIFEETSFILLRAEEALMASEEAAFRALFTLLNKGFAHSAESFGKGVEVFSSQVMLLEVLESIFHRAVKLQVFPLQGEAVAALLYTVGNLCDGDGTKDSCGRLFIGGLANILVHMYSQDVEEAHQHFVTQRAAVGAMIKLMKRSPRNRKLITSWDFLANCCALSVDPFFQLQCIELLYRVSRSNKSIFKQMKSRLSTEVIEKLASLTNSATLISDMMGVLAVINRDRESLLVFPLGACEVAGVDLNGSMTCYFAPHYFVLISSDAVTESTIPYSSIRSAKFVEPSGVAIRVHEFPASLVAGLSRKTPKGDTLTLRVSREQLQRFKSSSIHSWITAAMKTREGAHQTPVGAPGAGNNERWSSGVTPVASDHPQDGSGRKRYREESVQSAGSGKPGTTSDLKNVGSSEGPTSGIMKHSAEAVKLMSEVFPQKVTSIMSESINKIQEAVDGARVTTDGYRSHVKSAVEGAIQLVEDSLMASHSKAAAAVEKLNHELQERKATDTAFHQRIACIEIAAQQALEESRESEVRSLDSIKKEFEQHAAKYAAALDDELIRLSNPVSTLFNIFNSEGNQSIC
UniProt Q580F6: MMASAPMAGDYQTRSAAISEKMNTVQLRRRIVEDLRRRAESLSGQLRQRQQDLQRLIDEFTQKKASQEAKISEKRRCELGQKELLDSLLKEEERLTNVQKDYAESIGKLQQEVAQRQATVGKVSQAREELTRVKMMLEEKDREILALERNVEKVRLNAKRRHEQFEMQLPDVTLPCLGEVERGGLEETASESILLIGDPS
UniProt Q585X4: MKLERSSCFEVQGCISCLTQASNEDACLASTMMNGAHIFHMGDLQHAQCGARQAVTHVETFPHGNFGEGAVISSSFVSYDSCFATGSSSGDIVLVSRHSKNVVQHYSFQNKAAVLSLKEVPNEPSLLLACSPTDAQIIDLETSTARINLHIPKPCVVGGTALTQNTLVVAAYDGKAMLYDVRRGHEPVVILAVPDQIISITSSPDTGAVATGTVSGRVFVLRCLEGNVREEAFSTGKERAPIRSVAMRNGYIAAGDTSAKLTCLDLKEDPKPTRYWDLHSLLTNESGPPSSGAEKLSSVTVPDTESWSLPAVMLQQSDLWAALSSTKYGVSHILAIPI
UniProt Q38FF3: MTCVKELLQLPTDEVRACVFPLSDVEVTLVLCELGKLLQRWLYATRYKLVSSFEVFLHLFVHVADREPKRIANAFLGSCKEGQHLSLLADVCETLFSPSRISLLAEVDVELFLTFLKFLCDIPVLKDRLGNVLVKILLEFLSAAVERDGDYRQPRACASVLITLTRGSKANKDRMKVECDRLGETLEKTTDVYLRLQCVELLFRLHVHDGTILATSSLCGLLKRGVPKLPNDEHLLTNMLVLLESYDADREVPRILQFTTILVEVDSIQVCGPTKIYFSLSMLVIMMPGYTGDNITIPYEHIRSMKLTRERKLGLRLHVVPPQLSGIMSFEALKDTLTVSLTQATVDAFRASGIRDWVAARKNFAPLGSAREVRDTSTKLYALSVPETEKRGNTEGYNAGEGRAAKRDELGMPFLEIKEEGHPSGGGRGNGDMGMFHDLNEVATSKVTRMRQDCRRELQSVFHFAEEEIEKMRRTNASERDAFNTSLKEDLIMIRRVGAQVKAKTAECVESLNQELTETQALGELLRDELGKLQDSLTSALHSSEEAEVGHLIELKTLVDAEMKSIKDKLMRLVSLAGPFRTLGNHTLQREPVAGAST
UniProt Q382T9: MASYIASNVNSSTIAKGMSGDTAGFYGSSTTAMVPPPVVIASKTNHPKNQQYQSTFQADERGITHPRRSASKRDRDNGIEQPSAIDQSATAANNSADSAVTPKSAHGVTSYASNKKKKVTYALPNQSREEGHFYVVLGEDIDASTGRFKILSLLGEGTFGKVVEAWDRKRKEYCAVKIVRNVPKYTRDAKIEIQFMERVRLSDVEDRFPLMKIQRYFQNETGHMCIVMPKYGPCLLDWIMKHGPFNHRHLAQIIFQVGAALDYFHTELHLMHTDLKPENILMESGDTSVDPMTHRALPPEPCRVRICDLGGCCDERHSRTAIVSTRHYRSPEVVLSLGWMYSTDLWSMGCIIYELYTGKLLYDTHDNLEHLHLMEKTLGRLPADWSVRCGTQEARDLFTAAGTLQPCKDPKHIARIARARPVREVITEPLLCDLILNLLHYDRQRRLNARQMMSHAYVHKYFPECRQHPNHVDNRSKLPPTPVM

Assays:
Assay in all cases: affinity purification with mass spectrometry; YFP-tagged KKT protein immunoprecipitated with mouse monoclonal anti-GFP antibodies cross-linked to Protein-G magnetic beads from sonicated extract of the NP-40-insoluble fraction of asynchronous T. brucei procyclic cells; modified BH/0.15 (25 mM HEPES pH 8.0, 150 mM KCl, 1% NP-40, 15% glycerol), 3 hr, on ice; eluted with 0.1% Rapigest; copurifying proteins identified by LC-MS/MS (at least two peptides)
[1] = target: KKT1 (kinetoplastid kinetochore protein 1) (T. brucei) (UniProt Q38AX3)
KKT6 (T. brucei) = KKT6 (T. brucei) (UniProt Q585C6)
KKT7 (T. brucei) = KKT7 (T. brucei) (UniProt Q387E7)
KKT8 (T. brucei) = KKT8 (T. brucei) (UniProt Q584J5)
KKT9 (T. brucei) = KKT9 (T. brucei) (UniProt Q57VN9)
KKT10 (T. brucei) = KKT10 (T. brucei) (UniProt Q382U0)
KKT11 (T. brucei) = KKT11 (T. brucei) (UniProt Q57V00)
KKT14 (T. brucei) = KKT14 (T. brucei) (UniProt Q38AN9)
KKT16 (T. brucei) = KKT16 (T. brucei) (UniProt Q387F0)
KKT17 (T. brucei) = KKT17 (T. brucei) (UniProt Q582U6)
KKT12 (T. brucei) = KKT12 (T. brucei) (UniProt Q580F6)

| Substance | binding [1] | binding (KKT6 (T. brucei)) | binding (KKT7 (T. brucei)) | binding (KKT8 (T. brucei)) | further results |
| --- | --- | --- | --- | --- | --- |
| KKT2 (from UniProt Q383M7) | binds | – | – | – | – |
| KKT3 (from UniProt Q38DT1) | binds | – | – | – | – |
| KKT4 (from UniProt Q580Y8) | binds | – | – | – | – |
| KKT5 (from UniProt Q57XA1) | binds | – | – | – | – |
| KKT6 (from UniProt Q585C6) | binds | – | – | – | – |
| KKT7 (from UniProt Q387E7) | binds | binds | – | – | – |
| KKT8 (from UniProt Q584J5) | binds | binds | binds | – | – |
| KKT9 (from UniProt Q57VN9) | binds | binds | binds | binds | – |
| KKT10 (from UniProt Q382U0) | binds | binds | binds | binds | binding (KKT9 (T. brucei)): binds |
| KKT11 (from UniProt Q57V00) | binds | binds | binds | binds | binding (KKT10 (T. brucei)): binds; binding (KKT9 (T. brucei)): binds |
| KKT12 (from UniProt Q580F6) | binds | binds | binds | binds | binding (KKT10 (T. brucei)): binds; binding (KKT11 (T. brucei)): binds; binding (KKT9 (T. brucei)): binds |
| KKT13 (from UniProt Q57XA2) | binds | – | – | – | – |
| KKT15 (from UniProt Q585X4) | – | – | – | – | binding (KKT14 (T. brucei)): binds |
| KKT17 (from UniProt Q582U6) | – | – | – | – | binding (KKT16 (T. brucei)): binds |
| KKT18 (from UniProt Q38FF3) | – | – | – | – | binding (KKT17 (T. brucei)): binds; binding (KKT16 (T. brucei)): binds |
| KKT19 (from UniProt Q382T9) | – | binds | binds | binds | binding (KKT10 (T. brucei)): binds; binding (KKT12 (T. brucei)): binds; binding (KKT11 (T. brucei)): binds; binding (KKT9 (T. brucei)): binds |
